Results are given in words; binding and its absence hold for the method and conditions named. In cells and extracts the contact can be indirect. These calls come from enrichment with a bait or labelling near it, and not all partners need be listed. For some assays here: Where a sequence is shown, tags or fusion partners need not be part of it. Each block holds one binder with its values, some of them ahead of it.
Assays:
Experiment in all cases: affinity purification with mass spectrometry; FLAG-HA-tagged E3 induced with DOX in stable Flp-In293 cells; lysates in 1% LMNG (150 mM NaCl, 50 mM Tris-HCl pH 7.4, 5 mM EDTA); anti-FLAG agarose, 2 hr; eluted with SDS; LC-MS/MS; HCIPs by BSCG and SINQ analysis
[1] = target: Hrd1-FH (human) (UniProt Q86TM6)
[2] = target: T1, FH-RNF185 (human) (UniProt Q96GF1)
T1 sequence: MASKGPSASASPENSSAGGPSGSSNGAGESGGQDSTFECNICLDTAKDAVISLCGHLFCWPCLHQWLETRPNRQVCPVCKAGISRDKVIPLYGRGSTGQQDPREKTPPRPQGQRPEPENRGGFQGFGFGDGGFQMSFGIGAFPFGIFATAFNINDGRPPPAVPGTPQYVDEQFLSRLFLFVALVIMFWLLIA

Amino acid sequences for entries named in this document (tags omitted).
UniProt Q86TM6: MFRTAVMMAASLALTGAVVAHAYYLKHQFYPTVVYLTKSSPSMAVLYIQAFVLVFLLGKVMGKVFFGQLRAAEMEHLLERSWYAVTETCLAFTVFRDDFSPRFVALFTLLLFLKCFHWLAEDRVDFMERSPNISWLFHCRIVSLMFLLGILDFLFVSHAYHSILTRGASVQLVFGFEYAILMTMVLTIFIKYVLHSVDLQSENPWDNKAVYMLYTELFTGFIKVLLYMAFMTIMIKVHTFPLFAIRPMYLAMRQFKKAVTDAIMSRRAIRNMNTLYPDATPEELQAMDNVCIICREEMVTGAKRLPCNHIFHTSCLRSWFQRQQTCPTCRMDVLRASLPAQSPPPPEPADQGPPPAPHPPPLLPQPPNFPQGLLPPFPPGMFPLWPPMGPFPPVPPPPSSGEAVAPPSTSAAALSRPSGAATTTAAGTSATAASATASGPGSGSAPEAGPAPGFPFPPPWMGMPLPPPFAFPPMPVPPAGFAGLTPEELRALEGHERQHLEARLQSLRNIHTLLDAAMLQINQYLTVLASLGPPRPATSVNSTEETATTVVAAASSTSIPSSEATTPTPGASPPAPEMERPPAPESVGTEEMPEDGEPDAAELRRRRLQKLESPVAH
UniProt Q9UKV5: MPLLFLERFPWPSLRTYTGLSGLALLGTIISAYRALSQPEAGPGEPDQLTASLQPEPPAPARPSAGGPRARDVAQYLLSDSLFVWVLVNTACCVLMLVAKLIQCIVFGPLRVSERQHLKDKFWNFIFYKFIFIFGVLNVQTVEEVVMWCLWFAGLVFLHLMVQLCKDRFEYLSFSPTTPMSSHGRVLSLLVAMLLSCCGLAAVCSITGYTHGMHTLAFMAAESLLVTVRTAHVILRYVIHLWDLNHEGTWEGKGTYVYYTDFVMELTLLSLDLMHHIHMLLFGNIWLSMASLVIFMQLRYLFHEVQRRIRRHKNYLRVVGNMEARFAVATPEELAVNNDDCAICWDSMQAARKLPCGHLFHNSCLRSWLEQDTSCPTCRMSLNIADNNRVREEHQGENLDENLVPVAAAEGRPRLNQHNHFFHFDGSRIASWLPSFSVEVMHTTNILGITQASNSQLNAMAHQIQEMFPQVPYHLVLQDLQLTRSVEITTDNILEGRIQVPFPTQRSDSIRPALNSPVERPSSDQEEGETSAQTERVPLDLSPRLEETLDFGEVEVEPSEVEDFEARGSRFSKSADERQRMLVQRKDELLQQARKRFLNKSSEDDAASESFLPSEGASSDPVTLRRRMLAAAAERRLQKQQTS

[3] = target: T2, FLAG-HA-tagged RNF170 (human) (UniProt Q96K19)
T2 sequence: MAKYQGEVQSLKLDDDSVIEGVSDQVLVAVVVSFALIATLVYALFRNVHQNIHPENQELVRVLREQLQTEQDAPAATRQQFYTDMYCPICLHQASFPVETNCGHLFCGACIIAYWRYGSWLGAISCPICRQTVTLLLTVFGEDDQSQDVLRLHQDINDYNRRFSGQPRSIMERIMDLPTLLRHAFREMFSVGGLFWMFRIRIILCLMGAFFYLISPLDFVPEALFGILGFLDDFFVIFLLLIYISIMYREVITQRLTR

[4] = target: FLAG-HA-tagged gp78/AMFR (human) (UniProt Q9UKV5)

B3: RNF170 (endogenous, found as HCIP) (enzyme, UniProt Q96K19 1-258)
chain: T2 sequence
binding [2]: binds | binding [4]: binds

B4: OS-9 (protein, UniProt Q13438 26-667)
chain: GGVGSLNLEELSEMRYGIEILPLPVMGGQSQSSDVVIVSSKYKQRYECRLPAGAIHFQREREEETPAYQGPGIPELLSPMRDAPCLLKTKDWWTYEFCYGRHIQQYHMEDSEIKGEVLYLGYYQSAFDWDDETAKASKQHRLKRYHSQTYGNGSKCDLNGRPREAEVRFLCDEGAGISGDYIDRVDEPLSCSYVLTIRTPRLCPHPLLRPPPSAAPQAILCHPSLQPEEYMAYVQRQADSKQYGDKIIEELQDLGPQVWSETKSGVAPQKMAGASPTKDDSKDSDFWKMLNEPEDQAPGGEEVPAEEQDPSPEAADSASGAPNDFQNNVQVKVIRSPADLIRFIEELKGGTKKGKPNIGQEQPVDDAAEVPQREPEKERGDPERQREMEEEEDEDEDEDEDEDERQLLGEFEKELEGILLPSDRDRLRSEVKAGMERELENIIQETEKELDPDGLKKESERDRAMLALTSTLNKLIKRLEEKQSPELVKKHKKKRVVPKKPPPSPQPTEEDPEHRVRVRVTKLRLGGPNQDLTVLEMKRENPQLKQIEGLVKELLEREGLTAAGKIEIKIVRPWAEGTEEGARWLTDEDTRNLKEIFFNILVPGAEEAQKERQRQKELESNYRRVWGSPGGEGTGDLDEFDF
binding [1]: binds

B5: SLC39A14/ZIP14 (protein, UniProt Q15043 31-492)
chain: SSLGAPAISAASFLQDLIHRYGEGDSLTLQQLKALLNHLDVGVGRGNVTQHVQGHRNLSTCFSSGDLFTAHNFSEQSRIGSSELQEFCPTILQQLDSRACTSENQENEENEQTEEGRPSAVEVWGYGLLCVTVISLCSLLGASVVPFMKKTFYKRLLLYFIALAIGTLYSNALFQLIPEAFGFNPLEDYYVSKSAVVFGGFYLFFFTEKILKILLKQKNEHHHGHSHYASESLPSKKDQEEGVMEKLQNGDLDHMIPQHCSSELDGKAPMVDEKVIVGSLSVQDLQASQSACYWLKGVRYSDIGTLAWMITLSDGLHNFIDGLAIGASFTVSVFQGISTSVAILCEEFPHELGDFVILLNAGMSIQQALFFNFLSACCCYLGLAFGILAGSHFSANWIFALAGGMFLYISLADMFPEMNEVCQEDERKGSILIPFIIQNLGLLTGFTIMVVLTMYSGQIQIG
binding [1]: binds

B6: c6orf120 (protein, UniProt Q7Z4R8 31-191)
chain: DEEEVPEEWVLLHVVQGQIGAGNYSYLRLNHEGKIVLRMRSLKGDADLYVSASSLHPSFDDYELQSATCGPDAVSIPAHFRRPVGIGVYGHPSHLESEFEMKVYYDGTVEQHPFGEAAYPADGADAGQKHAGAPEDASQEEESVLWTILISILKLVLEILF
binding [2]: binds | binding [3]: binds

B7: UBAC2 (protein, UniProt Q8NBM4 36-344)
chain: HCQKLFVYDLHAVKNDFQIWRLICGRIICLDLKDTFCSSLLIYNFRIFERRYGSRKFASFLLGSWVLSALFDFLLIEAMQYFFGITAASNLPSGFLAPVFALFVPFYCSIPRVQVAQILGPLSITNKTLIYILGLQLFTSGSYIWIVAISGLMSGLCYDSKMFQVHQVLCIPSWMAKFFSWTLEPIFSSSEPTSEARIGMGATLDIQRQQRMELLDRQLMFSQFAQGRRQRQQQGGMINWNRLFPPLRQRQNVNYQGGRQSEPAAPPLEVSEEQVARLMEMGFSRGDALEALRASNNDLNVATNFLLQH
binding [4]: binds

B9: Herp2 (protein, UniProt Q9BSE4 1-406)
chain: MDQSGMEIPVTLIIKAPNQKYSDQTISCFLNWTVGKLKTHLSNVYPSKPLTKDQRLVYSGRLLPDHLQLKDILRKQDEYHMVHLVCTSRTPPSSPKSSTNRESHEALASSSNSSSDHSGSTTPSSGQETLSLAVGSSSEGLRQRTLPQAQTDQAQSHQFPYVMQGNVDNQFPGQAAPPGFPVYPAFSPLQMLWWQQMYAHQYYMQYQAAVSAQATSNVNPTQPTTSQPLNLAHVPGEEPPPAPNLVAQENRPMNENVQMNAQGGPVLNEEDFNRDWLDWMYTFSRAAILLSIVYFYSSFSRFIMVMGAMLLVYLHQAGWFPFRQEGGHQQAPNNNAEVNNDGQNANNLELEEMERLMDDGLEDESGEDGGEDASAIQRPGLMASAWSFITTFFTSLIPEGPPQVAN
binding [1]: binds

B10: FAM8A1 (protein, UniProt Q9UBU6 1-413)
chain: MAEGPEEARGHPPGQDDGGGDHEPVPSLRGPPTTAVPCPRDDPQAEPQAPGRPTAPGLAAAAAADKLEPPRELRKRGEAASGSGAELQEQAGCEAPEAAAPRERPARLSAREYSRQVHEWLWQSYCGYLTWHSGLAAFPAYCSPQPSPQSFPSGGAAVPQAAAPPPPQLGYYNPFYFLSPGAAGPDPRTAAGISTPAPVAGLGPRAPHVQASVRATPVTRVGSAAPSRSPSETGRQAGREYVIPSLAHRFMAEMVDFFILFFIKATIVLSIMHLSGIKDISKFAMHYIIEEIDEDTSMEDLQKMMVVALIYRLLVCFYEIICIWGAGGATPGKFLLGLRVVTCDTSVLIAPSRVLVIPSSNVSITTSTIRALIKNFSIASFFPAFITLLFFQHNRTAYDIVAGTIVVKRNGVR
binding [1]: binds

B11: Derlin1/DERL1 (protein, UniProt Q9BUN8 1-251)
chain: MSDIGDWFRSIPAITRYWFAATVAVPLVGKLGLISPAYLFLWPEAFLYRFQIWRPITATFYFPVGPGTGFLYLVNLYFLYQYSTRLETGAFDGRPADYLFMLLFNWICIVITGLAMDMQLLMIPLIMSVLYVWAQLNRDMIVSFWFGTRFKACYLPWVILGFNYIIGGSVINELIGNLVGHLYFFLMFRYPMDLGGRNFLSTPQFLYRWLPSRRGGVSGFGVPPASMRRAADQNGGGGRHNWGQGFRLGDQ
binding [4]: binds

Second part, the binder after the results:

binding [1]: binds
B1: DHCR7 (enzyme, UniProt Q9UBM7 1-475)
chain: MAAKSQPNIPKAKSLDGVTNDRTASQGQWGRAWEVDWFSLASVIFLLLFAPFIVYYFIMACDQYSCALTGPVVDIVTGHARLSDIWAKTPPITRKAAQLYTLWVTFQVLLYTSLPDFCHKFLPGYVGGIQEGAVTPAGVVNKYQINGLQAWLLTHLLWFANAHLLSWFSPTIIFDNWIPLLWCANILGYAVSTFAMVKGYFFPTSARDCKFTGNFFYNYMMGIEFNPRIGKWFDFKLFFNGRPGIVAWTLINLSFAAKQRELHSHVTNAMVLVNVLQAIYVIDFFWNETWYLKTIDICHDHFGWYLGWGDCVWLPYLYTLQGLYLVYHPVQLSTPHAVGVLLLGLVGYYIFRVANHQKDLFRRTDGRCLIWGRKPKVIECSYTSADGQRHHSKLLVSGFWGVARHFNYVGDLMGSLAYCLACGGGHLLPYFYIIYMAILLTHRCLRDEHRCASKYGRDWERYTAAVPYRLLPGIF

binding [2]: binds | binding [3]: binds
B2: ERLIN2 (protein, UniProt O94905 1-339)
chain: MAQLGAVVAVASSFFCASLFSAVHKIEEGHIGVYYRGGALLTSTSGPGFHLMLPFITSYKSVQTTLQTDEVKNVPCGTSGGVMIYFDRIEVVNFLVPNAVYDIVKNYTADYDKALIFNKIHHELNQFCSVHTLQEVYIELFDQIDENLKLALQQDLTSMAPGLVIQAVRVTKPNIPEAIRRNYELMESEKTKLLIAAQKQKVVEKEAETERKKALIEAEKVAQVAEITYGQKVMEKETEKKISEIEDAAFLAREKAKADAECYTAMKIAEANKLKLTPEYLQLMKYKAIASNSKIYFGKDIPNMFMDSAGSVSKQFEGLADKLSFGLEDEPLETATKEN

binding [4]: binds
B8: HMGCR (enzyme, UniProt P04035 1-888)
chain: MLSRLFRMHGLFVASHPWEVIVGTVTLTICMMSMNMFTGNNKICGWNYECPKFEEDVLSSDIIILTITRCIAILYIYFQFQNLRQLGSKYILGIAGLFTIFSSFVFSTVVIHFLDKELTGLNEALPFFLLLIDLSRASTLAKFALSSNSQDEVRENIARGMAILGPTFTLDALVECLVIGVGTMSGVRQLEIMCCFGCMSVLANYFVFMTFFPACVSLVLELSRESREGRPIWQLSHFARVLEEEENKPNPVTQRVKMIMSLGLVLVHAHSRWIADPSPQNSTADTSKVSLGLDENVSKRIEPSVSLWQFYLSKMISMDIEQVITLSLALLLAVKYIFFEQTETESTLSLKNPITSPVVTQKKVPDNCCRREPMLVRNNQKCDSVEEETGINRERKVEVIKPLVAETDTPNRATFVVGNSSLLDTSSVLVTQEPEIELPREPRPNEECLQILGNAEKGAKFLSDAEIIQLVNAKHIPAYKLETLMETHERGVSIRRQLLSKKLSEPSSLQYLPYRDYNYSLVMGACCENVIGYMPIPVGVAGPLCLDEKEFQVPMATTEGCLVASTNRGCRAIGLGGGASSRVLADGMTRGPVVRLPRACDSAEVKAWLETSEGFAVIKEAFDSTSRFARLQKLHTSIAGRNLYIRFQSRSGDAMGMNMISKGTEKALSKLHEYFPEMQILAVSGNYCTDKKPAAINWIEGRGKSVVCEAVIPAKVVREVLKTTTEAMIEVNINKNLVGSAMAGSIGGYNAHAANIVTAIYIACGQDAAQNVGSSNCITLMEASGPTNEDLYISCTMPSIEIGTVGGGTNLLPQQACLQMLGVQGACKDNPGENARQLARIVCGTVMAGELSLMAALAAGHLVKSHMIHNRSKINLQDLQGACTKKTA

From paper PMC7332293
